Experimental findings from PMC6396947 are described below.

Amino acid sequences for entries named in this document (tags omitted).
UniProt Q16531: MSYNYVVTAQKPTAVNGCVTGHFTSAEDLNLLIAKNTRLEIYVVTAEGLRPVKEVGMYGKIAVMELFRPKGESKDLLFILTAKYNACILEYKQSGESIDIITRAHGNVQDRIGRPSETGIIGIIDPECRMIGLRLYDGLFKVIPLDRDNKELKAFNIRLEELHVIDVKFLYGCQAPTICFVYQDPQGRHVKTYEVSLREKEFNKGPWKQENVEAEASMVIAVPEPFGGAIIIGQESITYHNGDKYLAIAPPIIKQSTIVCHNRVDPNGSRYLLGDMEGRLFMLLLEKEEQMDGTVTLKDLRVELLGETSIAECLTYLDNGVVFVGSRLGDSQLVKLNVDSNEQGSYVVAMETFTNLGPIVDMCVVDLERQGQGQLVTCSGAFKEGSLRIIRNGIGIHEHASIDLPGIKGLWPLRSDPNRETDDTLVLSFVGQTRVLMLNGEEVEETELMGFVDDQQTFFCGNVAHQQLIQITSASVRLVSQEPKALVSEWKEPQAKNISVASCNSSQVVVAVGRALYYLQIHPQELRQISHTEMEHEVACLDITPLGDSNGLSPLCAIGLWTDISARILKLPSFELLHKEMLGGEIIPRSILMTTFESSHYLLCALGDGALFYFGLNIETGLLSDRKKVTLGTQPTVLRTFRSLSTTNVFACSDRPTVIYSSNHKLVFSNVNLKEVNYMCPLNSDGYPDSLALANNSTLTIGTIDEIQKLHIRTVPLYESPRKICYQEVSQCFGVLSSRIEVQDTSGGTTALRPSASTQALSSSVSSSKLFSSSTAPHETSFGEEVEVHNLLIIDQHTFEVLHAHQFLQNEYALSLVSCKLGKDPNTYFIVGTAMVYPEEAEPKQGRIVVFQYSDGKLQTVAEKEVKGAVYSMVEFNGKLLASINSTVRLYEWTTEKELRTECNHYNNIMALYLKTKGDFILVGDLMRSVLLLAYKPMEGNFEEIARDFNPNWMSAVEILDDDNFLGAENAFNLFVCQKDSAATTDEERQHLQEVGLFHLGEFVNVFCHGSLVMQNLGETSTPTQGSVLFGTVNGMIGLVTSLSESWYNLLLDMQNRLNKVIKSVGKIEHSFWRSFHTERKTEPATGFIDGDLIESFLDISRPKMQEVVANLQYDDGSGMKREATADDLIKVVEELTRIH

Results are given in words; binding and its absence hold for the method and conditions named. Binding seen in cells or lysates may run through a third protein. Some results given as binding are weak or reduced against the parent protein; the word gives no strength. Tags and fused reporters may be left off the sequences shown.

The target in one test is T1, Flag-MMS22L (human) (UniProt Q6ZRQ5).
T1 sequence: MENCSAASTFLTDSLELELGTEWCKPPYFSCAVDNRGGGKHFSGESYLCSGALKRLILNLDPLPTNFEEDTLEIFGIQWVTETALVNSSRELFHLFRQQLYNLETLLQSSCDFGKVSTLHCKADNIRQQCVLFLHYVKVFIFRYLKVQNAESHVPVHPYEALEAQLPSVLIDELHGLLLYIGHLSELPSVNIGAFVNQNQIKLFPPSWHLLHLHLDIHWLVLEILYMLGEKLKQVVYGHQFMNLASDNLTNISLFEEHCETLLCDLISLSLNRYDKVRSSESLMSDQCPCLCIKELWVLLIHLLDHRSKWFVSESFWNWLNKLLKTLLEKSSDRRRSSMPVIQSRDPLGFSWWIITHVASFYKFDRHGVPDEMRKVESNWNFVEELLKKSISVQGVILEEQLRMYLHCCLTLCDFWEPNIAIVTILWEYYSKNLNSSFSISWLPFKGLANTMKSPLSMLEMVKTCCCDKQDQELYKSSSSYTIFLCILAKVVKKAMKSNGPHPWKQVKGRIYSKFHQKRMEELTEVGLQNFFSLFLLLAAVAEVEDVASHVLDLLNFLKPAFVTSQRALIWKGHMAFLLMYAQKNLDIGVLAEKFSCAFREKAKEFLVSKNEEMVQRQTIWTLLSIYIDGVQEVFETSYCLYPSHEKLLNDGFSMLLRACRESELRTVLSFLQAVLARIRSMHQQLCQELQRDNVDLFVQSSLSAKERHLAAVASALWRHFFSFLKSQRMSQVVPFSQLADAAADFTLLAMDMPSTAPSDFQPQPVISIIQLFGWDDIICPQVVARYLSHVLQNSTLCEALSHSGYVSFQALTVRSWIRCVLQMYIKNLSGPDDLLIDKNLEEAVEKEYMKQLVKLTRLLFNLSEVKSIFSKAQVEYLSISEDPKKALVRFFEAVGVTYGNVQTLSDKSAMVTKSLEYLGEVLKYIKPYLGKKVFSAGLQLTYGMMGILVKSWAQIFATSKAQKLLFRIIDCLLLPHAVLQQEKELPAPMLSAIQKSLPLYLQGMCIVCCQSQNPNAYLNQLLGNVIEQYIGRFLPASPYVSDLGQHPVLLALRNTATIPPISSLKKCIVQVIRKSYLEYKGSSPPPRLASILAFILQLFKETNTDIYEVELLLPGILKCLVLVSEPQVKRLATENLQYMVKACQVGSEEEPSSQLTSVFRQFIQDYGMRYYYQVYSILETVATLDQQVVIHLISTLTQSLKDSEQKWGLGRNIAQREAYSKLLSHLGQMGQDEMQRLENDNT
The test is described as follows: co-IP; Flag-tagged and GFP-tagged proteins co-expressed in 293T cells; lysis buffer 50 mM Tris-HCl, 150 mM NaCl, 1% NP-40, 5 mM EDTA, 10% glycerin; 250 ug total protein with anti-Flag agarose 1.5 h at 4 C, five washes; immunoblots against Flag and GFP.

In test [1] the target is T2, GST-ESCO2-LG (L415DG417D) (human) (UniProt Q56NI9).
T2 sequence: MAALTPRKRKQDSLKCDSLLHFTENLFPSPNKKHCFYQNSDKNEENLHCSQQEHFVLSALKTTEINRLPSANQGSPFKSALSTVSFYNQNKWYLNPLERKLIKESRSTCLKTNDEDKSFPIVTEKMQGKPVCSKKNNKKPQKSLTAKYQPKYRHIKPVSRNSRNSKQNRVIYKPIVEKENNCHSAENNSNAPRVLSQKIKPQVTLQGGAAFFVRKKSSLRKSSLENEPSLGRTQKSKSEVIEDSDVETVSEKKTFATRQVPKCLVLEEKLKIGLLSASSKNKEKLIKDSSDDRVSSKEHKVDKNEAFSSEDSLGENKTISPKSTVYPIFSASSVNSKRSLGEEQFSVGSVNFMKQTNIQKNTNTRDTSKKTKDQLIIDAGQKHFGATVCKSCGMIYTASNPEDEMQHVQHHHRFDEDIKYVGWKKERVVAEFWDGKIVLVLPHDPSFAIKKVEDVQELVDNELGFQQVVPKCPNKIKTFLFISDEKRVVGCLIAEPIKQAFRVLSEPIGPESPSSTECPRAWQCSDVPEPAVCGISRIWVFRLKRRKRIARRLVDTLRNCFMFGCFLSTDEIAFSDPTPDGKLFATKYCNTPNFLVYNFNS
As to the kind of experiment: pull-down; GST-ESCO2 or its mutants bound to glutathione sepharose, incubated with FLAG-MMS22L or His6-PCNA; co-purified fractions detected by western blotting; as described in ref. 20.

Take GFP-DDB1 (from UniProt Q16531 1-1140): the binding result with Flag-MMS22L (human) was “binds”.

B1: FLAG-MMS22L (of the GST pull-down) (protein, UniProt Q6ZRQ5 1-1243)
chain: MENCSAASTFLTDSLELELGTEWCKPPYFSCAVDNRGGGKHFSGESYLCSGALKRLILNLDPLPTNFEEDTLEIFGIQWVTETALVNSSRELFHLFRQQLYNLETLLQSSCDFGKVSTLHCKADNIRQQCVLFLHYVKVFIFRYLKVQNAESHVPVHPYEALEAQLPSVLIDELHGLLLYIGHLSELPSVNIGAFVNQNQIKLFPPSWHLLHLHLDIHWLVLEILYMLGEKLKQVVYGHQFMNLASDNLTNISLFEEHCETLLCDLISLSLNRYDKVRSSESLMSDQCPCLCIKELWVLLIHLLDHRSKWFVSESFWNWLNKLLKTLLEKSSDRRRSSMPVIQSRDPLGFSWWIITHVASFYKFDRHGVPDEMRKVESNWNFVEELLKKSISVQGVILEEQLRMYLHCCLTLCDFWEPNIAIVTILWEYYSKNLNSSFSISWLPFKGLANTMKSPLSMLEMVKTCCCDKQDQELYKSSSSYTIFLCILAKVVKKAMKSNGPHPWKQVKGRIYSKFHQKRMEELTEVGLQNFFSLFLLLAAVAEVEDVASHVLDLLNFLKPAFVTSQRALIWKGHMAFLLMYAQKNLDIGVLAEKFSCAFREKAKEFLVSKNEEMVQRQTIWTLLSIYIDGVQEVFETSYCLYPSHEKLLNDGFSMLLRACRESELRTVLSFLQAVLARIRSMHQQLCQELQRDNVDLFVQSSLSAKERHLAAVASALWRHFFSFLKSQRMSQVVPFSQLADAAADFTLLAMDMPSTAPSDFQPQPVISIIQLFGWDDIICPQVVARYLSHVLQNSTLCEALSHSGYVSFQALTVRSWIRCVLQMYIKNLSGPDDLLIDKNLEEAVEKEYMKQLVKLTRLLFNLSEVKSIFSKAQVEYLSISEDPKKALVRFFEAVGVTYGNVQTLSDKSAMVTKSLEYLGEVLKYIKPYLGKKVFSAGLQLTYGMMGILVKSWAQIFATSKAQKLLFRIIDCLLLPHAVLQQEKELPAPMLSAIQKSLPLYLQGMCIVCCQSQNPNAYLNQLLGNVIEQYIGRFLPASPYVSDLGQHPVLLALRNTATIPPISSLKKCIVQVIRKSYLEYKGSSPPPRLASILAFILQLFKETNTDIYEVELLLPGILKCLVLVSEPQVKRLATENLQYMVKACQVGSEEEPSSQLTSVFRQFIQDYGMRYYYQVYSILETVATLDQQVVIHLISTLTQSLKDSEQKWGLGRNIAQREAYSKLLSHLGQMGQDEMQRLENDNT
Regarding B1, the binding result in test [1] was “binds weakly”.
